A short description of the test: IkB Signaling. As to conditions: ABC-DLBCL IkBa-CBG/CBR dual luciferase ratio (green luciferase fused to IkBa over red control in OCI-Ly3 lymphoma cells), 4 h. In a few lines:
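In this assay, an IκBα–CBG68 fusion accumulates when IKK-driven degradation is blocked; native CBR normalizes for cell number. OCI-Ly3 cells were treated 4 h with compound and doxycycline, then green and red light read after Chroma-Glo addition.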

Where [1] appears, read: measured here: control luc red channel unless noted.

Each structure is given as a SMILES string. The list shows a part of the results. The main result of the screen is listed elsewhere. These columns were measured beside it and carry no call. Compounds called inactive in the main read-out are mostly missing here. Words in brackets tell the shape of the fitted curve; partial curves, single points and poor fits give uncertain potencies.

In the case of `Cc1ccc(C(=O)N2CCCCC2)cc1NC(=O)c1nsc2ccccc12`, the AC50 under setting [1] was 39.8 µM [falling, partial curve]. On the same count and under the same terms, the result for `CCN(CC)CC(=O)c1ccc(-c2ccccc2)cc1` reads 12.6 µM [falling, partial curve]; that for `O=C(Nc1ccccc1C(F)(F)F)C1CCN(S(=O)(=O)Cc2ccccc2)CC1`, 25.1 µM [falling, partial curve]; that for `CCOC(=O)Cc1csc(NC(=O)c2ccc3c(c2)OCO3)n1`, 7.94 µM [falling, partial curve]. The same measure, in the same setting: the result for `O=C(Cn1cc(C(=O)C(F)(F)F)c2ccccc21)N1CCCCCC1` reads 12.6 µM [falling, partial curve]; that for `Cn1c(N)c(C(=O)COC(=O)CCCc2c[nH]c3ccccc23)c(=O)n(C)c1=O`, 15.8 µM [falling, partial curve]. Still for that read-out and setting: with `Cc1c(C(=O)OC2CCC(C)CC2)[nH]c2c1C(=O)CCC2` (centres undefined) the figure was 25.1 µM [falling, partial curve]; with `O=C(COc1ccc2ccccc2c1)NC1CC(=O)N(c2ccc(F)cc2)C1` (centres undefined), 3.16 µM [rising, full curve, poor fit]; with `CC1CCCCN1CCCNC(=O)c1cc(Sc2cccc(Cl)c2)nc2ccccc12` (centres undefined), 39.8 µM [falling, single point]. With `Clc1ccc(-c2nc3nc4ccccc4nc3n2Cc2ccco2)cc1`, under setting [1], the AC50 was 0.0398 µM [falling, full curve]. Same read-out and setting: the result for `Cc1nc2sccn2c(=O)c1CCN1CCC(=C(c2ccccc2)c2ccc(F)cc2)CC1` reads 31.6 µM [falling, partial curve].

Turning to `CCNC(=O)c1ccc2c(c1)nc1n2CCCCC1`, the AC50 under setting [1] is 1.58 µM [rising, full curve, poor fit]. Same read-out and setting: the result for `O=C(CN1CCN(c2ccccn2)CC1)Nc1ccc2ccccc2c1` reads 31.6 µM [falling, single point]; that for `COc1cccc(N2CCN(C(=O)C3CCCN(S(=O)(=O)c4cccc5nsnc45)C3)CC2)c1` (centres undefined), 25.1 µM [falling, partial curve]. The same measure, in the same setting: the result for `CCOc1ccc(C(=O)c2cn(CC(=O)Nc3ccc4c(c3)OCO4)c3ccc(OC)cc3c2=O)cc1` reads 15.8 µM [falling, partial curve]. For the compound `COc1ccc(OC)c(NC(=O)Cn2c(=O)c3cccn3c3ccccc32)c1`, under setting [1], the AC50 was 10 µM [falling, partial curve]. Same read-out and setting: with `Cc1ccc(S(=O)(=O)c2cn(CC(=O)Nc3cccc(Cl)c3)c3ccccc3c2=O)cc1` the figure was 12.6 µM [falling, partial curve]. On to `Cc1ccc(Cl)cc1NC(=O)CSc1nc2ccccc2c2nc(-c3ccccc3)nn12`, for which, under setting [1], the AC50 is 39.8 µM [rising, partial curve, poor fit].

As to `COc1cc(OC)c(-c2nn3c(-c4ccncc4)nnc3s2)cc1OC`, the AC50 under setting [1] is 7.94 µM [rising, partial curve]. Turning to `CCOc1ccc(C(=O)Nc2cc(-c3nc4cc(OC)ccc4o3)ccc2C)cc1[N+](=O)[O-]`, the AC50 by setting is: (measured here: IkB-luc green channel) 15.8 µM [rising, partial curve]; (measured here: control luc red channel) 1.58 µM [falling, partial curve]. On to `COc1ccc(C(=O)Nc2nc(-c3cccs3)cs2)cc1`, for which the AC50 under setting [1] was 7.94 µM [falling, partial curve]. Same read-out and setting: the result for `CCn1c2ccccc2c2cc(CN3CCN(Cc4cc(OC)c(O)c(OC)c4)CC3)ccc21` reads 15.8 µM [falling, partial curve]; that for `COc1cc2[nH]c(=O)n(Cc3ccc(C(=O)N4CCN(c5ccc(Cl)cc5)CC4)cc3)c(=O)c2cc1OC`, 7.94 µM [falling, partial curve]; that for `Cc1ccc(Cn2c(C)nc3c(c2=O)c2nc4ccccc4nc2n3Cc2ccco2)cc1`, 12.6 µM [falling, partial curve]. For the compound `CCc1cccc(NC(=O)CSc2nncn3c2cc2sccc23)c1`, the AC50 under setting [1] is 7.94 µM [falling, partial curve]. The same measure, in the same setting: with `COc1ccc(S(=O)(=O)NCCSc2nnnn2-c2ccccc2)cc1OC` the figure was 0.398 µM [rising, full curve].

With `CSc1nnc2c(n1)OC(C)N(C(=O)c1ccccc1)c1ccccc1-2` (centres undefined), the AC50 under setting [1] was 0.02 µM [falling, full curve]. `O=C(Nc1ccccc1Oc1ccccc1)c1ccc(Br)o1`: the AC50 under setting [1] was 20 µM [falling, partial curve].

With `COc1cccc(C2C(C(=O)Nc3ccc(Cl)cc3)=C(C)Nc3nc4ccccc4n32)c1OC` (centres undefined), the AC50 under setting [1] is 10 µM [falling, partial curve].

With `COc1cccc(-n2cnc3scc(-c4cccs4)c3c2=O)c1`, the AC50 under setting [1] was 1.26 µM [rising, full curve]. On the same count and under the same terms, the result for `Cc1oc2ncn(CC(C)C)c(=O)c2c1C(=O)N(CCN(C)C)Cc1ccccc1` reads 1 µM [rising, full curve, poor fit]; that for `CCCc1nnc(NC(=O)c2cc(=O)c3ccccc3o2)s1`, 39.8 µM [falling, single point]; that for `NC(=NCCCCCCN=C(N)/N=C(\N)Nc1ccc(Cl)cc1)/N=C(\N)Nc1ccc(Cl)cc1`, 31.6 µM [falling, partial curve]. Same read-out and setting: the result for `CCOC(=O)c1c(C)n(-c2ccccc2)c2ccc(OC(=O)COc3ccccc3)cc12` reads 25.1 µM [falling, single point]; that for `COc1ccc(N2CCN(C(=O)C3CCCN(C(=O)c4cc5sccc5n4C)C3)CC2)cc1` (centres undefined), 5.01 µM [falling, partial curve]. On the same count and under the same terms, the result for `O=C(CSc1nc(=O)[nH]c2c1CCCC2)NCc1ccccc1Cl` reads 3.98 µM [rising, partial curve].

`Cc1ccc(OCc2nc3ccccc3n2CC(C)C)cc1`: the AC50 under setting [1] was 31.6 µM [falling, single point].

Consider `Cc1cc(C(=O)CSc2nc(N)cc(N)n2)c(C)n1CCc1ccc(F)cc1`, for which, under setting [1], the AC50 was 7.94 µM [falling, partial curve].

Consider `Cc1cc2c(cc1S(=O)(=O)NCc1ccc(N(C)C)cc1)OCC(=O)N2`, for which, under setting [1], the AC50 is 39.8 µM [falling, single point].

With `CCCN(C(=O)c1cc2c(s1)-c1ccccc1SC2)c1ccccc1F`, under setting [1], the AC50 is 1.26 µM [falling, full curve].

Take `Cc1ccc(CN2CCC(CNc3ncnc4onc(-c5ccc(Cl)cc5)c34)CC2)cc1`: the AC50 under setting [1] is 20 µM [falling, single point]. On the same count and under the same terms, with `CC1(c2ccc(Cl)cc2)CC(C)(C)N(C(=O)c2ccccc2)c2ccccc21` (centres undefined) the figure was 7.94 µM [falling, partial curve]. On to `COc1cccc(-n2ccnc2SCC(=O)Nc2cccc(C)c2C)c1`, for which the AC50 under setting [1] is 0.1 µM [falling, full curve].

Regarding `COc1ccc(-n2ncc(C(=O)NCc3ccccc3)c2C2CCN(C(=O)OC(C)(C)C)CC2)cc1`, the half-maximal activity concentration (AC50) under setting [1] was 39.8 µM [falling, partial curve, poor fit]. The same measure, in the same setting: with `COc1ccc(-c2nc3c(C#N)c[nH]n3c2NC2CCCCC2)c(OC)c1` the figure was 20 µM [falling, partial curve].

As for `COc1cccc(N2CCN(C(=O)C3CCC(CNS(=O)(=O)c4ccc(Br)s4)CC3)CC2)c1` (centres undefined), the AC50 under setting [1] was 6.31 µM [falling, single point]. On to `O=c1cc(-c2ccccc2)oc2cc(O)cc(O)c12`, for which the AC50 under setting [1] was 6.31 µM [falling, partial curve].

In the case of `CCn1c2ccccc2c2cc(C3C(C#N)=C(N)Oc4n[nH]c(COC)c43)ccc21` (centres undefined), under setting [1], the AC50 is 15.8 µM [falling, partial curve].

As for `Cc1ccc2c(c1)[nH]c1c(N3CCN(Cc4ccccc4)CC3)ncnc12`, the AC50 under setting [1] is 3.16 µM [falling, full curve]. `c1coc(CNc2nc(N3CCCCC3)nc3ccccc23)c1`: under setting [1], the AC50 was 39.8 µM [falling, single point]. The same measure, in the same setting: with `CC(C)(C)NS(=O)(=O)c1ccc2nc(NC(=O)c3cccnc3)sc2c1` the figure was 0.0501 µM [falling, full curve, poor fit]; with `COc1ccc(C)cc1NC(=O)c1oc2ccc(S(=O)(=O)N(C)C3CCCCC3)cc2c1C`, 25.1 µM [falling, partial curve, poor fit]; with `CC(=O)N1c2ccccc2CC1C(=O)N1CCN(c2ccc(F)cc2)CC1` (centres undefined), 0.0316 µM [rising, full curve, poor fit]. The same measure, in the same setting: with `O=C(Nc1ccc(F)cc1F)c1ccc(CN2CC(=O)N3CCCCC3C2=O)cc1` (centres undefined) the figure was 12.6 µM [falling, partial curve]; with `CC(C)(C)c1cc(C(C)(C)C)c2oc(=O)c(-c3nc4ccccc4[nH]3)cc2c1`, 12.6 µM [falling, partial curve]; with `Cc1ccc(Cn2c(SCC(=O)NCc3ccc(Cl)cc3)nc3ccsc3c2=O)cc1`, 31.6 µM [rising, partial curve, poor fit]. Same read-out and setting: with `Cc1noc(-c2ccccc2OCC(=O)Nc2cccc([N+](=O)[O-])c2)n1` the figure was 25.1 µM [falling, single point]. On to `COC(=O)Nc1ccc(S(=O)(=O)N2CCCC(C(=O)Nc3cccc4c3OCCO4)C2)cc1` (centres undefined), for which the AC50 under setting [1] is 25.1 µM [falling, partial curve]. As for `CS(=O)(=O)N1CCc2cc(S(=O)(=O)N3CCN(Cc4ccc5c(c4)OCO5)CC3)ccc21`, the AC50 under setting [1] is 0.126 µM [falling, full curve]. The same measure, in the same setting: with `CCOC(=O)C1CCCN(S(=O)(=O)c2ccc3[nH]c(=O)ccc3c2)C1` (centres undefined) the figure was 1.58 µM [rising, full curve, poor fit]; with `COc1ccc(-c2nnn3c2nc(N2CCCC(C)C2)c2ccccc23)cc1` (centres undefined), 2 µM [falling, full curve]. On the same count and under the same terms, the result for `O=C(CSc1nnc(Cc2cccs2)n1Cc1ccco1)Nc1cccc(Cl)c1` reads 31.6 µM [falling, partial curve]; that for `O=C(CN1CCC(c2nc3ccccc3s2)CC1)NCc1cccs1`, 10 µM [falling, partial curve].

By AC50 is commonly meant the concentration giving half of the maximal activity seen.

Values taken from PubChem BioAssay AID445 (National Center for Advancing Translational Sciences (NCATS), 2006).
